These results are taken from the supplement of paper PMC10849652.

Chains of the proteins cited; added tags and fusions are not shown. Lines headed by an entry give the natural chain unless they say otherwise; changes in a name come on top.
UniProt Q9P2Y5: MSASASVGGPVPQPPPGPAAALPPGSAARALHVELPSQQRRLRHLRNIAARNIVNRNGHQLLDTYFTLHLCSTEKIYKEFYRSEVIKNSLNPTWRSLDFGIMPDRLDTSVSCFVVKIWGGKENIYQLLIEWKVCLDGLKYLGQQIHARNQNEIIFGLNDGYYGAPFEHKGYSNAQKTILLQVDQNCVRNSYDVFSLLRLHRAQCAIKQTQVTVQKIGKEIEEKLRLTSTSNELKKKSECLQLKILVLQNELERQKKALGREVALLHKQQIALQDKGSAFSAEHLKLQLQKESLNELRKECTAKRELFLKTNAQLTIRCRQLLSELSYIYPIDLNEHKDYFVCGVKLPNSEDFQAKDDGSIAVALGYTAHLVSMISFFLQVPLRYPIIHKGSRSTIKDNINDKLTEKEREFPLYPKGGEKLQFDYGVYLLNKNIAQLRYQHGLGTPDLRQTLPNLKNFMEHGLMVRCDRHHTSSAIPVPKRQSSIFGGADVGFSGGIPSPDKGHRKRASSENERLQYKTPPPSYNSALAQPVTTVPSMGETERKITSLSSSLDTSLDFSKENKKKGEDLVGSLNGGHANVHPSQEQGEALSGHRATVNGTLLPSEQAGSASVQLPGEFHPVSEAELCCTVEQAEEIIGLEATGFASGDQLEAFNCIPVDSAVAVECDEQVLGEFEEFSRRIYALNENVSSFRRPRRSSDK
UniProt P22415: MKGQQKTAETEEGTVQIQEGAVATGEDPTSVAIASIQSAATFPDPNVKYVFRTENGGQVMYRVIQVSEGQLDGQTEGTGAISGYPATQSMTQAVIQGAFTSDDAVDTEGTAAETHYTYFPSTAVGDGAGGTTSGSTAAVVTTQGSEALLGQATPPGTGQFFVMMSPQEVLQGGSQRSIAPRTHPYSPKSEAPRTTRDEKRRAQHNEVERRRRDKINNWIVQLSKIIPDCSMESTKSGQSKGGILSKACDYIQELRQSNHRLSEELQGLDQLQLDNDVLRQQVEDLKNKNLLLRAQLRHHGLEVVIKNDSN
UniProt P14927: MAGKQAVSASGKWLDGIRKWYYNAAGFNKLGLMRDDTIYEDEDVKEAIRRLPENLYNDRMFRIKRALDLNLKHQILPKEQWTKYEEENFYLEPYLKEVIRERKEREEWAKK
UniProt P51784: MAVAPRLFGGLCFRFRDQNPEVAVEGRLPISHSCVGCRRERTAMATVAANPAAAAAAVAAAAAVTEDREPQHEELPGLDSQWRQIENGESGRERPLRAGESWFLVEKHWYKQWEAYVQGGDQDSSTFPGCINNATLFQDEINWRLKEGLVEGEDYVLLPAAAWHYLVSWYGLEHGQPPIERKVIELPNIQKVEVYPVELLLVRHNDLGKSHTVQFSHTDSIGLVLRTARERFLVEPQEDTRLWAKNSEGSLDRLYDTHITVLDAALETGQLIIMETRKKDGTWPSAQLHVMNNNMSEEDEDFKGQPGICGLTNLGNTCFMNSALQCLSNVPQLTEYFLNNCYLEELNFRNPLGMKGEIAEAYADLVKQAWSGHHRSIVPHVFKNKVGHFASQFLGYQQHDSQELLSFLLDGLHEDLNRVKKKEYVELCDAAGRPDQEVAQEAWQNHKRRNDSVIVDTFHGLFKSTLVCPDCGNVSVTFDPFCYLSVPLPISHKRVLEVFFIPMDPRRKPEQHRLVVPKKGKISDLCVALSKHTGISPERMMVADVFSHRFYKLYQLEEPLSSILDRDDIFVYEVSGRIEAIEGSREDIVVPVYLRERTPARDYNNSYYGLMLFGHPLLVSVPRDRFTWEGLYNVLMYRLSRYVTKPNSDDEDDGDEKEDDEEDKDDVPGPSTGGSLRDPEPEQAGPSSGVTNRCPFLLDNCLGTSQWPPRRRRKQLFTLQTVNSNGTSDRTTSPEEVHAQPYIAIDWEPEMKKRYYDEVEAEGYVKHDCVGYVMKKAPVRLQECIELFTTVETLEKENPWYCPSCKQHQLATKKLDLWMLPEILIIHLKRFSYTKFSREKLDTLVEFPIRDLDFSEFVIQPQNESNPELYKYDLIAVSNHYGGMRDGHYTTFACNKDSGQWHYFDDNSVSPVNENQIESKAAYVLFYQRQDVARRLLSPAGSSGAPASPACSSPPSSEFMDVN
UniProt Q9BVJ6: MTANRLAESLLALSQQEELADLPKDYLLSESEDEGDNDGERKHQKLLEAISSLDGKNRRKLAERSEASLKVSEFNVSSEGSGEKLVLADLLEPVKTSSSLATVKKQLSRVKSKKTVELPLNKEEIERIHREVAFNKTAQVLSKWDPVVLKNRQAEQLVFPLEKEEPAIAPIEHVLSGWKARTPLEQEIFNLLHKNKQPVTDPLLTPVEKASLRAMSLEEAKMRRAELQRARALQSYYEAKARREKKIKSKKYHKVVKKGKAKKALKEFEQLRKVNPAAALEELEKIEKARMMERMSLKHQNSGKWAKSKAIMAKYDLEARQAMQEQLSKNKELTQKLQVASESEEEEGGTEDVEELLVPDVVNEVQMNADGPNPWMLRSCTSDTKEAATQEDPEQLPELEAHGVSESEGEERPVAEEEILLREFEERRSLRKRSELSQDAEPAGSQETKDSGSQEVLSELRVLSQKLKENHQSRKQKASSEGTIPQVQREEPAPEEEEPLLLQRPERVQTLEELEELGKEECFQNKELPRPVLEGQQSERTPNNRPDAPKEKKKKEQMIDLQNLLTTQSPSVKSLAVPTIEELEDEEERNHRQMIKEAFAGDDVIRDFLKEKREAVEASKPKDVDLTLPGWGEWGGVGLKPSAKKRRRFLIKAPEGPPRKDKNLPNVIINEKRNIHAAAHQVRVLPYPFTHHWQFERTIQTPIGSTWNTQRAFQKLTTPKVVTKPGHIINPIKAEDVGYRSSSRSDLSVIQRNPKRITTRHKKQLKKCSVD
UniProt Q92890: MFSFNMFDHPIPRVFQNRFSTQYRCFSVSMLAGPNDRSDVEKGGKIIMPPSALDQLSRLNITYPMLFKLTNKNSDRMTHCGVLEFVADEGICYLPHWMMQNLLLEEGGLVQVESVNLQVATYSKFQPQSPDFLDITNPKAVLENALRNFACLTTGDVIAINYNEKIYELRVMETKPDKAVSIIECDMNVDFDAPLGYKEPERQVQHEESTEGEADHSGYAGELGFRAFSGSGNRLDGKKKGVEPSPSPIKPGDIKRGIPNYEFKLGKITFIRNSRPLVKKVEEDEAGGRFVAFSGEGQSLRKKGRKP
UniProt P15498: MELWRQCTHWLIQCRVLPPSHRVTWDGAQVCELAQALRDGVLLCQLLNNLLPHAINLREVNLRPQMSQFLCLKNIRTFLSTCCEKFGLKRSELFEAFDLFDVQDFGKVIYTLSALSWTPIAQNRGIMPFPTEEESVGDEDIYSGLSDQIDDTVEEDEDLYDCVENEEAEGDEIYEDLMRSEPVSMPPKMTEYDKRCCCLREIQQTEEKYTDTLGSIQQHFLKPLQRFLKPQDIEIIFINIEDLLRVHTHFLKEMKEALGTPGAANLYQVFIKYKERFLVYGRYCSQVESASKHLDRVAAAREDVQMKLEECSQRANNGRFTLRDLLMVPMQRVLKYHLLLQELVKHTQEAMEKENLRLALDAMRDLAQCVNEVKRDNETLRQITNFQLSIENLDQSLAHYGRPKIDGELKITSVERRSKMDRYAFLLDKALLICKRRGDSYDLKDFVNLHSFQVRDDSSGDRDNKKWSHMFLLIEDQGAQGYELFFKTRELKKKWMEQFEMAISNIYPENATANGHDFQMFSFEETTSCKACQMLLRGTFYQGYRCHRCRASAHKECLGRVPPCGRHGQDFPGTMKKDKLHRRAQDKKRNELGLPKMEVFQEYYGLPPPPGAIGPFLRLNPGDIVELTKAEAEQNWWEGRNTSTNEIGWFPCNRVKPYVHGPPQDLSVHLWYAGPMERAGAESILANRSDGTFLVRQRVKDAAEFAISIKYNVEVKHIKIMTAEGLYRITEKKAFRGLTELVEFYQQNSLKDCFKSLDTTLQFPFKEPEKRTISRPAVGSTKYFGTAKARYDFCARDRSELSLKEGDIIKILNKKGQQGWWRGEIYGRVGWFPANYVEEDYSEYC
UniProt Q969X6: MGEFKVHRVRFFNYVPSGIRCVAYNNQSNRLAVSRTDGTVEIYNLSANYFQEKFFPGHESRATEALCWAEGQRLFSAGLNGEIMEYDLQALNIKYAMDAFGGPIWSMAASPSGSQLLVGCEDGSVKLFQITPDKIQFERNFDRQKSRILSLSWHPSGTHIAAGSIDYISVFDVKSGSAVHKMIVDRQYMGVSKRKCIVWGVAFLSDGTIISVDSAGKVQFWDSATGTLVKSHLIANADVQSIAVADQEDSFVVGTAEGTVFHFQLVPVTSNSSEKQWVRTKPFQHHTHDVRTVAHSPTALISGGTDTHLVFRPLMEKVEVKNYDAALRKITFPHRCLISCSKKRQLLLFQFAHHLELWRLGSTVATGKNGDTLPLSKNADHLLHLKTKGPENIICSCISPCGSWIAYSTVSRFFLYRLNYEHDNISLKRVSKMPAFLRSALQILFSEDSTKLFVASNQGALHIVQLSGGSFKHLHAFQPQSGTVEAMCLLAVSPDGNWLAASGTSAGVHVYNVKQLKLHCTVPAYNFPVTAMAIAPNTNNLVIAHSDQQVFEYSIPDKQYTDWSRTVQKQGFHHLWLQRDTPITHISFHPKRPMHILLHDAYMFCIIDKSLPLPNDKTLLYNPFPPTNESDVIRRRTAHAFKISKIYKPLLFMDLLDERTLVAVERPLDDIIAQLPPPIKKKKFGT
UniProt Q96BW1: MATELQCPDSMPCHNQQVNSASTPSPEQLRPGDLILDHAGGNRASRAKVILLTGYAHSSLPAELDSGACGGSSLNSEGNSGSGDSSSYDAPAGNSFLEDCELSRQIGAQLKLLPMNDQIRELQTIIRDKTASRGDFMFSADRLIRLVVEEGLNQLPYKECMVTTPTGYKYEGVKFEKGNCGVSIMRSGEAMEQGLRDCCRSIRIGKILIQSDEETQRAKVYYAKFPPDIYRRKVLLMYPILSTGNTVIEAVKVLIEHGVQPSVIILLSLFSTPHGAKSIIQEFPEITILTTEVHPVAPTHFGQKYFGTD
UniProt P61758, whole entry, looked up: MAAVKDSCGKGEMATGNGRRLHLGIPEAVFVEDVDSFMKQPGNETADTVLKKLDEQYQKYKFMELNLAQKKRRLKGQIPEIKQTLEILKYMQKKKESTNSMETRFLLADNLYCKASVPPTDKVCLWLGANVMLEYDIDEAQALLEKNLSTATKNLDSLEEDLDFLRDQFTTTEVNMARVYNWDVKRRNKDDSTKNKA
UniProt O14957: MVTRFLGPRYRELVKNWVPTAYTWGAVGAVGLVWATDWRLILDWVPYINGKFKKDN
UniProt Q14694, whole entry, looked up: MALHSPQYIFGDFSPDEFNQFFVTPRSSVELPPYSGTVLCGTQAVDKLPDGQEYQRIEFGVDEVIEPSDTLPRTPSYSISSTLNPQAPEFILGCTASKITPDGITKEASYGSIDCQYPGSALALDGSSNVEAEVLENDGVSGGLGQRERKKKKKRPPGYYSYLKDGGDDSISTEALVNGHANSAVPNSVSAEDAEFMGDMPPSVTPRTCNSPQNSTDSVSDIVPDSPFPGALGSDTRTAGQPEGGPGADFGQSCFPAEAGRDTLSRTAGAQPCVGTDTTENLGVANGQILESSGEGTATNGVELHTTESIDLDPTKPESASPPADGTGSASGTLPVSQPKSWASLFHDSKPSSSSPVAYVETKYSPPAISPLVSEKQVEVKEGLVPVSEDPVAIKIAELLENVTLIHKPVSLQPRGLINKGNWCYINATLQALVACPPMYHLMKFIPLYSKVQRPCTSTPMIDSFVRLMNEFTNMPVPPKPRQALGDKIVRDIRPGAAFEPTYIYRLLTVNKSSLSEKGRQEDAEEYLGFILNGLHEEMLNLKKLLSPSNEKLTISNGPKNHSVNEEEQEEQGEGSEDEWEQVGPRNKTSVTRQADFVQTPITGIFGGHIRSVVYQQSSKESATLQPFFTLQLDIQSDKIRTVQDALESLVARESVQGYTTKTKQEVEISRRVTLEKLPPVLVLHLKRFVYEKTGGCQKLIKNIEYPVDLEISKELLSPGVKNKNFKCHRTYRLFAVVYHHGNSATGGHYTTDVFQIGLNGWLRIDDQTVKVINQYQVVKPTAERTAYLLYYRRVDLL
UniProt Q9P0L0: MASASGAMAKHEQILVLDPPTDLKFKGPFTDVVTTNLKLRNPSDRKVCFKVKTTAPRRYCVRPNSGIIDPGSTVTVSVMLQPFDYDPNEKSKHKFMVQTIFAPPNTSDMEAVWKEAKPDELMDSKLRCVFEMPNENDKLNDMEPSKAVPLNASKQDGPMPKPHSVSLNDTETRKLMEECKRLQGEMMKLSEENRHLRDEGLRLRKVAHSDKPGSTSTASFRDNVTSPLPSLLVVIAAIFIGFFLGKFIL
UniProt Q9UBK9, whole entry, looked up: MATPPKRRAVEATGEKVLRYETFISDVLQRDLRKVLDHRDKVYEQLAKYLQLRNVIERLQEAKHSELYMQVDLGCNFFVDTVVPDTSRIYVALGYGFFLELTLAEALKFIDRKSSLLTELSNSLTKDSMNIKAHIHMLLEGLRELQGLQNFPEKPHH
UniProt P63027, whole entry, looked up: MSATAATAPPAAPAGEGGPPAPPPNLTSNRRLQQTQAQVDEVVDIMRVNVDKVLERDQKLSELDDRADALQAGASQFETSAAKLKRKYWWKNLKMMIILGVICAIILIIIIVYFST

This is one part of the list.

Compound in the first experiment: CC1=C(C2=C(C=C1)C(=O)C3=CC=CC=C3N2CCCN)C
As to the kind of experiment: log2 fold change, soluble protein after heating vs DMSO (PISA); higher = thermal stabilisation; K562 lysate, 10 uM; active = over 0.2 and 3.5 SD of the protein, either way, in both replicates (recomputed). In a few lines: (§1)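 Thermal stability, expressed as log-two fold change relative to solvent controls, is given from duplicates. Crude K562 extract in PBS pH 7.4 with 1 mM MgCl2, at 1 mg/mL protein, was treated with 10 μM compound for 30 min and heated in aliquots for 3 min across 48°C-58°C. After pooling, adjustment to 0.5% NP-40 at 4°C and centrifugation at 21,000xg for 90 min, supernatant protein was measured by TMTpro 16plex LC-MS/MS with channel sums equalised.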
On to UVRAG (UniProt Q9P2Y5), for which the log2 fold change is inactive: 0.033.
On the same count and under the same terms, to UNK (UniProt Q9C0B0) belongs inactive: -0.023; to USF1 (UniProt P22415), inactive: -0.059.
As for UQCRB (UniProt P14927), the log2 fold change was inactive: -0.007.
Take VASP (UniProt P50552): the log2 fold change is inactive: 0.038.
Still for that read-out and setting: to USP11 (UniProt P51784) belongs inactive: -0.042; to USP3 (UniProt Q9Y6I4), inactive: 0.011; to VIPAS39 (UniProt Q9H9C1), inactive: -0.123.
On the same count and under the same terms, to UTP14A (UniProt Q9BVJ6) belongs inactive: -0.045; to VAV3 isoform 4 (UniProt Q9UKW4), inactive: 0.085; to VIRMA (UniProt Q69YN4), inactive: 0.014.
The same measure, in the same setting: to UTP6 (UniProt Q9NYH9) belongs inactive: -0.064; to VCPIP1 (UniProt Q96JH7), inactive: -0.05.
For the target VARS (UniProt P26640), the log2 fold change was inactive: -0.047.
Take UFD1 isoform 1 (UniProt Q92890): the log2 fold change is inactive: -0.035.
On the same count and under the same terms, then USP13 (UniProt Q92995), with inactive: -0.011; and VCP (UniProt P55072), with inactive: 0.018; and USP48 (UniProt Q86UV5), with inactive: 0.
The same measure, in the same setting: then UTP15 (UniProt Q8TED0), with inactive: -0.045.
As to VANGL1 (UniProt Q8TAA9), the log2 fold change is inactive: -0.109.
VAV1 (UniProt P15498): the log2 fold change is inactive: -0.034.
On the same count and under the same terms, then UTP4 (UniProt Q969X6), with inactive: 0.029.
On the same count and under the same terms, then UPRT (UniProt Q96BW1), with inactive: 0.005.
On the same count and under the same terms, to USP8 (UniProt P40818) belongs inactive: -0.007.
As to VBP1 (UniProt P61758), the log2 fold change is inactive: -0.007.
On to VEZF1 (UniProt Q14119), for which the log2 fold change is inactive: 0.008.
On to ULBP1 (UniProt Q9BZM6), for which the log2 fold change was inactive: -0.117.
On to UQCR11 (UniProt O14957), for which the log2 fold change is inactive: -0.142.
Same read-out and setting: then USP10 isoform 2 (UniProt Q14694), with inactive: 0.018.
Same read-out and setting: to VAPA (UniProt Q9P0L0) belongs inactive: 0.023; to UXT isoform 2 (UniProt Q9UBK9), inactive: -0.091.
For the target VAMP2 (UniProt P63027), the log2 fold change was inactive: -0.01.

Compound in a further experiment: CC1=C(C=C(C=C1)NC(=O)C2=CC(=CC=C2)C(C)(C)C#N)NC3=CC4=C(C=C3)N=CN(C4=O)C
Described as above. In outline:
as §1
Take UVRAG (UniProt Q9P2Y5): the log2 fold change is inactive: -0.009.
Same read-out and setting: then UNK (UniProt Q9C0B0), with inactive: 0.016.
In the case of USF1 (UniProt P22415), the log2 fold change was inactive: -0.043.
The same measure, in the same setting: to UQCRB (UniProt P14927) belongs inactive: 0.021; to VASP (UniProt P50552), inactive: 0.014.
As to USP11 (UniProt P51784), the log2 fold change was inactive: -0.005.
For USP3 (UniProt Q9Y6I4), the log2 fold change was inactive: -0.014.
Take VIPAS39 (UniProt Q9H9C1): the log2 fold change was inactive: 0.02.
On to UTP14A (UniProt Q9BVJ6), for which the log2 fold change is inactive: 0.024.
Still for that read-out and setting: to VAV3 isoform 4 (UniProt Q9UKW4) belongs inactive: -0.03.
On the same count and under the same terms, then VIRMA (UniProt Q69YN4), with inactive: 0.069.
Same read-out and setting: to UTP6 (UniProt Q9NYH9) belongs inactive: 0.022.
As to VCPIP1 (UniProt Q96JH7), the log2 fold change is inactive: -0.007.
With VARS (UniProt P26640), the log2 fold change was inactive: 0.001.
The same measure, in the same setting: to UFD1 isoform 1 (UniProt Q92890) belongs inactive: 0.049; to USP13 (UniProt Q92995), inactive: 0.006.
As for VCP (UniProt P55072), the log2 fold change is inactive: 0.012.
Same read-out and setting: then USP48 (UniProt Q86UV5), with inactive: -0.039.
For UTP15 (UniProt Q8TED0), the log2 fold change is inactive: -0.007.
On to VANGL1 (UniProt Q8TAA9), for which the log2 fold change was inactive: -0.062.
Still for that read-out and setting: then VAV1 (UniProt P15498), with inactive: -0.078; and UTP4 (UniProt Q969X6), with inactive: -0.002.
The same measure, in the same setting: to UPRT (UniProt Q96BW1) belongs inactive: -0.025.
Same read-out and setting: then USP8 (UniProt P40818), with inactive: -0.001; and VBP1 (UniProt P61758), with inactive: 0.008; and VEZF1 (UniProt Q14119), with inactive: 0.166.
As to ULBP1 (UniProt Q9BZM6), the log2 fold change was inactive: 0.064.
Still for that read-out and setting: then UQCR11 (UniProt O14957), with inactive: 0.034; and USP10 isoform 2 (UniProt Q14694), with inactive: 0.003.
Same read-out and setting: to VAPA (UniProt Q9P0L0) belongs inactive: -0.102; to UXT isoform 2 (UniProt Q9UBK9), inactive: 0.
Same read-out and setting: to VAMP2 (UniProt P63027) belongs inactive: -0.048.

Compound in another experiment: CC1=C(C=C(C=C1)NC(=O)C2=CC(=CC=C2)N(C)C)NC(=O)C3=CC=C(C=C3)O
Described as above. In a few lines: as §1
Regarding UVRAG (UniProt Q9P2Y5), the log2 fold change was inactive: 0.015.
Same read-out and setting: to UNK (UniProt Q9C0B0) belongs inactive: -0.13; to USF1 (UniProt P22415), inactive: -0.089.
For UQCRB (UniProt P14927), the log2 fold change was inactive: 0.014.
As to VASP (UniProt P50552), the log2 fold change is inactive: -0.014.
With USP11 (UniProt P51784), the log2 fold change was inactive: 0.045.
In the case of USP3 (UniProt Q9Y6I4), the log2 fold change was inactive: 0.016.
For the target VIPAS39 (UniProt Q9H9C1), the log2 fold change is inactive: -0.012.
Take UTP14A (UniProt Q9BVJ6): the log2 fold change was inactive: -0.069.
On the same count and under the same terms, then VAV3 isoform 4 (UniProt Q9UKW4), with inactive: -0.026; and VIRMA (UniProt Q69YN4), with inactive: 0.004.
Regarding UTP6 (UniProt Q9NYH9), the log2 fold change was inactive: 0.062.
As to VCPIP1 (UniProt Q96JH7), the log2 fold change was inactive: 0.048.
Take VARS (UniProt P26640): the log2 fold change was inactive: 0.041.
In the case of UFD1 isoform 1 (UniProt Q92890), the log2 fold change is inactive: -0.041.
The same measure, in the same setting: then USP13 (UniProt Q92995), with inactive: -0.027.
On the same count and under the same terms, to VCP (UniProt P55072) belongs inactive: -0.016.
Turning to USP48 (UniProt Q86UV5), the log2 fold change is inactive: 0.041.
On the same count and under the same terms, to UTP15 (UniProt Q8TED0) belongs inactive: 0.002; to VANGL1 (UniProt Q8TAA9), inactive: -0.066.
Still for that read-out and setting: to VAV1 (UniProt P15498) belongs inactive: 0.046.
With UTP4 (UniProt Q969X6), the log2 fold change was inactive: 0.013.
As for UPRT (UniProt Q96BW1), the log2 fold change is inactive: 0.077.
Still for that read-out and setting: then USP8 (UniProt P40818), with inactive: 0.018.
On the same count and under the same terms, to VBP1 (UniProt P61758) belongs inactive: -0.014.
As to VEZF1 (UniProt Q14119), the log2 fold change was inactive: -0.094.
The same measure, in the same setting: then ULBP1 (UniProt Q9BZM6), with inactive: 0.016; and UQCR11 (UniProt O14957), with inactive: -0.019.
As to USP10 isoform 2 (UniProt Q14694), the log2 fold change was inactive: 0.018.
On the same count and under the same terms, then VAPA (UniProt Q9P0L0), with inactive: 0.008; and UXT isoform 2 (UniProt Q9UBK9), with inactive: -0.015; and VAMP2 (UniProt P63027), with inactive: 0.047.
